According to paper PMC10454571:
These are yes or no findings as the source states them, for the method shown. Binding seen in cells or lysates may run through a third protein. Here binding means that the protein was enriched with, or labelled near, the bait; the list need not be complete.

How the values were obtained:
[1] = molecular target: His6 PfGEXP15 GYF, shorter fragment (2053-2347 bp) (Plasmodium falciparum) (UniProt Q8IJ89); experiment: affinity purification with mass spectrometry; His6 PfGEXP15 fragments on nickel agarose beads mixed overnight at 4 °C with soluble extracts of wild-type trophozoites/schizonts in 20 mM Tris, 150 mM NaCl, 0.5% Triton X-100, pH 7.5; tetR bacterial protein as negative control; three replicates; only the target purified
[2] = molecular target: PfGEXP15-GFP-DDD-HA (Plasmodium falciparum 3D7) (UniProt Q8IJ89); experiment: affinity purification with mass spectrometry; GFP-Trap magnetic agarose on soluble extracts of trophozoites and schizonts of the PfGEXP15-GFP-DDD-HA line, overnight at 4 °C, parental strain as control, three biological replicates; 20 mM Tris, 150 mM NaCl, 0.5% Triton X-100, pH 7.5 washes
[3] = molecular target: His6 PfGEXP15 UD, shorter fragment (853-1266 bp) (Plasmodium falciparum) (UniProt Q8IJ89); experiment: affinity purification with mass spectrometry; His6 PfGEXP15 fragments on nickel agarose beads mixed overnight at 4 °C with soluble extracts of wild-type trophozoites/schizonts in 20 mM Tris, 150 mM NaCl, 0.5% Triton X-100, pH 7.5; tetR bacterial protein as negative control; three replicates; only the target purified

Binder | binding [1] | binding [2] | binding [3]
60S ribosomal protein L32 (protein, UniProt Q8I3B0 1-131) MAVKKVGKIIKKRTKKFTRFQSNRFMRVKPAWRKPRGIDCRVRRRYKGTNLMPSIGYGSNKKTKFLLPNNKYKYVVKNVKEMEPLIMNHTKYCVQIAHNVSSKKRKQIIERAKQMNVSVINAKARLQKTEE | binds | binds | –
40S ribosomal protein S15 (protein, UniProt Q8IDB0 1-151) MGRMYGKGKGISSSTLPYKRKQPSWLKQKPSEIEDAIIKLAKKGQTPSQIGATLRDNYGIPQVKSVTGNKILRILRAQGIATTIPEDLYFLIKKAVSMRKHLEKNKKDKDCKFRLILTESKIHRISRYYKRKKLLPSNWKYQSSTASALIA | binds | binds | –
exportin-7 (protein, UniProt C0H530 1-1198) MSESELQQLQVLCEAMYCGNKEEQNQAHTILLPLVNNVMNVSKLKNILGSTNHVHTLIFTTSGLLQLITNEWNKIDQKEKDELKEFVISYLYNKGVDLLNLSTNILGNFVRLYVRIVKLSWLENTNYSLITKQVEYFLNSVTSHWIIGLYIYAALIEDMHPQCGVNSAKSRRCAISFRDYVLKDIFKVGIETLEEFVKGSIRIELRIEENRLLIKVLELIYNSLSFDFMGTMINDESSDENISLMIPQSWDIFNEKNIPKLFFDMYELCMSEEDDIRNCCGKYCLRSLILLGSLRKTFFTNEKQKVHYMNEFLGGINKIIEKKIGLNDEDCFHEMCRLIGKIDTSVRLQELSTYSNFLSWCHNIYLFTMDGMKNWKYLCNSKHYLLGIWSNMLNIIPPKVIKEINNRTDEKDLLKDVLSNKNIFAKKNSISDNFNSHDIDNKYLIICDYIYDITIIFINTRLELANYICEKGDNCEIENPLYNDVLRSEQLELISNLSKLQYNFIGAKLLSIFYELKSNHENNLISKTVFIEQTTWLVFIIASIISSSAISNMKNSSFNNFKINSELCFLVFSLMDQTNKSPEVFEYLEFAYLNCLELFKKVYISGKKNNQFLKEMRSVALKIIPDGGSNMYPNNNNNNNNNNNNNNNSNNIINNNNSSNSCGINNTLGFTTGSTNNPNTLLNNNMNNFATPSLITNENDDDNNDPLIDLIISKILFNLNNRVEYEQIIKRSLDLFHDLVSGMNIVCLEDKTPKLIVFARLLLKNEKILNLLHNRSTKFLEISKYYKYRTNYYLILTKLLFMEQNLVSSTFEKYIAPINNILECIKREININGKDIILKNNEIKLTFIGALRDLRGICMACNNVETYNMFFNFFINSHPLEDNQMNILTSLVDVIWNSYDICIPFLKFMCEFVYNKSQRITFPKSSPNGILLFKVVSNILIIISNNLLQKDKFIDIYKEKYKIISLLLNMFNNCLNGDFVNFAIFDLYNDDILNNSLNLALNMCLVIPTNDLLSYIKHLKPYFSFLDLVTKNFFQRILNLEFQLIADIIHNVKEGLCSFDYTVSMTCCSILDNIVTYIFTNRKNSTEQGQIIKNFLESQPQALKEVLNLMFHLILGGDFGSTWSMSQPLLGLILLDAQGYFKIQEQLISQQSEEKKQKLRHSFCKLMDHIESNLAPNNRENFTRNLYTFAQEIRNILI | – | – | binds
60S ribosomal protein L26 (protein, UniProt O77364 1-126) MKFNKQKSSSRRKMRKAHFTAPAGLRRKIMSSKLSKELRLKYKTRSLPVRKDDEVLICRGHNHGREGKVVKINRKRYKIYVERVTREKVNGESTFIGIHPSNVVLTKLKVDKNRKKILDRKAAKEN | binds | binds | –
